PMC12040169 (PLOS Biology, 2025)
This is one part of the list.

System: T1, CTL2-GFP (C. trachomatis L2/434/Bu, GFP-expressing)
T1 construct: L2/434/Bu, GFP-expressing
Design: species or system HeLa; Intracellular C. trachomatis growth in HeLa cells, bulk GFP fluorescence relative to DMSO
Settings: bulk GFP, single well; 28.5 h, 10 µM; inhibitor

| Structure (SMILES) | % of control remaining |
| --- | --- |
| O=C(O)C1C2C=CC(C2)C1C(=O)NCc1ccco1 (stereo not shown) [CBK265453] | 120.255% |
| Cc1ccc(-n2cc(-c3ccccc3)[nH]c2=O)cc1 [CBK288103] | 140.693% |
| Cc1nc2ccccc2nc1SCc1nc(N)nc(N2CCCCC2)n1 [CBK270218] | 134.704% |
| Cn1nccc1C(=O)N[C@H]1CCC[C@@H](c2c[nH]c3ccccc23)C1 [CBK285073] | 123.201% |
| CC(C)Nc1nccnc1Sc1ccccc1O [CBK089492] | 115.192% |
| O=C(Nc1ccc2n(c1=O)C[C@@H]1CNC[C@H]2C1)c1ccncc1 [CBK289177] | 97.963% |
| CC(O)CNC(=O)c1cn2cc(-c3cccs3)n(CC3CC3)c(=O)c2n1 (stereo not shown) [CBK307117] | 137.286% |
| O=C(c1cc(-c2cccc(Br)c2)nc2ccccc12)N1CCN(C/C=C/c2ccccc2)CC1 [CBK262633] | 96.58% |
| CS(=O)(=O)Nc1nccnc1OC1CCN(CCCn2c(=O)[nH]c3ccccc32)CC1 [CBK084277] | 117.94% |
| CC(CCO)CNS(=O)(=O)c1ccc(N2CCCC2=O)cc1 (stereo not shown) [CBK306358] | 89.1359% |
| Cc1ccc(C2(CN3CCC(NC(=O)c4cc[nH]n4)CC3)CC2)cc1 [CBK285360] | 123.043% |
| NS(=O)(=O)c1ccc(CNC(=O)c2cc(-c3ccncc3)nc3ccc(Cl)cc23)cc1 [CBK267770] | 94.9862% |
| C=CCn1c(-c2sc(NC(=O)CN3C(=C)c4ccccc4C3=O)nc2C)n[nH]c1=S [CBK297909] | 112.911% |
| Cc1ccc2[nH]cc(CCN3CCC(C(=O)NC(=O)Nc4ccccc4F)CC3)c2c1 [CBK034974] | 102.169% |
| COc1cncc(-c2cccc(N3CCN(CCN(C)C)CC3)n2)c1 [CBK037024] | 118.502% |
| CCCNC(=O)C(C)Sc1nc2ccsc2c(=O)n1CC (stereo not shown) [CBK296745] | 127.485% |
| Cc1ccn2cc(-c3ccc4c(c3)CC(C)N4S(C)(=O)=O)cc2c1 (stereo not shown) [CBK285253] | 120.143% |
| CS(=O)(=O)c1ccc(-c2ccc3c(c2)OCCN(C2CCN(C(=O)CC(F)(F)F)CC2)C3)cc1 [CBK169260] | 112.16% |
| Cc1ccc(S(=O)(=O)Nc2nnc(C)s2)cc1 [CBK045486] | 127.947% |
| O=C(CN1C(=O)[C@@H]2CCCN2C(=O)c2ccccc21)N1CCCC1 [CBK282434] | 110.146% |
| CN1CCCN(c2cncc(-c3cccs3)n2)CC1 [CBK065542] | 91.0486% |
| O=C(O)C1C2C=CC3(CN(C4CCCCC4)C(=O)C13)O2 (stereo not shown) [CBK287248] | 115.699% |
| CCS(=O)(=O)c1ccc2oc([C@H]3CCN(C(=O)C4CCCCC4)C3)nc2c1 [CBK289381] | 157.258% |
| Cc1noc(C)c1C(=O)N1CCCCCC1c1cnn(C)c1 (stereo not shown) [CBK284974] | 132.603% |
| Sc1nnc(-c2ccncc2)n1C1CCCCC1 [CBK288421] | 103.697% |
| CC(=O)c1cnc2cc(-c3ccc(Cl)cc3)nn2c1C [CBK051484] | 136.233% |
| CCc1cc(Br)ccc1S(=O)(=O)Nc1cccc2cccnc12 [CBK045012] | 97.9089% |

| Structure (SMILES) | % of control remaining |
| --- | --- |
| CCS(=O)(=O)Nc1cc(N2CCNCC2)c2occc2c1 [CBK059429C] | 116.62% |
| CCOc1ccc(/N=c2\scc(-c3ccc(OC)c(Br)c3)n2CCc2ccccc2)cc1 [CBK263654B] | 100% |
| Cc1ccc(-c2nnc(C3CCCN(C(=O)C(C)C)C3)o2)s1 (stereo not shown) [CBK283058] | 147.677% |
| Cc1ccc(S(=O)(=O)c2nc(NCCN3CCOCC3)sc2Cl)cc1 [CBK269615] | 142.606% |
| N#Cc1c[nH]nc1NS(=O)(=O)c1ccc(F)cc1 [CBK051018] | 118.031% |
| Cn1nnnc1SCC(=O)Nc1cccc2nsnc12 [CBK268973] | 111.568% |
| c1nc(Nc2ccc3[nH]ccc3c2)cc(-c2ccc3c(c2)OCO3)n1 [CBK037761] | 92.9789% |
| O=C(Cc1csc(NS(=O)(=O)c2ccc(-c3cccc([N+](=O)[O-])c3)cc2)n1)N1CCOCC1 [CBK200032] | 100.019% |
| COc1ccc(CCNC(=O)N(CCC#N)C2CCCCC2)cc1OC [CBK156363] | 104.276% |
| O=C(NCC1CCCN1)c1cc(C(=O)c2ccc(Cl)cc2Cl)c[nH]1 (stereo not shown) [CBK115923C] | 101.238% |
| O=C(O)c1ccc2c(c1)C(=O)N(c1ccc(C3(c4ccc(N5C(=O)c6ccc(C(=O)O)cc6C5=O)cc4)c4ccccc4-c4ccccc43)cc1)C2=O [CBK261195] | 113.43% |
| COC(=O)[C@H]1CN(C(=O)CN2CCCC2=O)C[C@@H]1c1ccccc1F [CBK283518] | 125.014% |
| CCn1c(SCC(=O)NC(=O)NC2CCCCC2)nc2ccccc21 [CBK306037] | 139.788% |
| c1csc(-c2cncc(NCCc3ccncc3)n2)c1 [CBK065797] | 113.513% |
| CN(CC(=O)Nc1cccc(Cl)c1)S(=O)(=O)c1ccc2ccccc2c1 [CBK266746] | 149.599% |
| COC(=O)c1c(C)n(CCCNc2ccc([N+](=O)[O-])cc2Cl)c2ccc(O)cc12 [CBK268363] | 158.068% |
| CC(=O)Nc1ccc(NC(=O)COc2c(C)cc(Br)cc2C)cc1 [CBK267321] | 118.2% |
| Cc1nc([N+](=O)[O-])c(NCCO)n1Cc1ccccc1 [CBK261422] | 100% |
| N#Cc1nc(=O)[nH]cc1N [CBK021411] | 132.18% |
| CCOC(=O)c1c(NC(=O)CSc2n[nH]c(N)n2)sc2c1CCCCC2 [CBK266569] | 99.3587% |
| Cc1ccc(N(CC(=O)Nc2cccc3ccccc23)S(=O)(=O)c2ccc(F)cc2)cc1 [CBK262707] | 72.556% |
| Cn1cnnc1C1CCN(C(=O)CC2OCCc3sccc32)CC1 (stereo not shown) [CBK304912] | 110.09% |
| CCNC(=O)Nc1ccc2ccc(-c3ccsc3)nc2n1 [CBK070699] | 101.631% |
| Nc1ncnc(Nc2ccc(Nc3ccccc3)cc2)c1[N+](=O)[O-] [CBK267347] | 171.281% |
| CC(=O)N1CC(C(=O)Nc2ncc(-c3ccccc3)n2C)C1 [CBK281373] | 119.412% |
| O=C(/C=C/c1ccc(F)cc1)NCCc1ccc(S(=O)(=O)N2CCCC2)cc1 [CBK265227] | 129.086% |
| CCOC(=O)C1CCN(C(=O)Nc2cc(C)on2)CC1 [CBK306280] | 140.187% |

| Structure (SMILES) | % of control remaining |
| --- | --- |
| Cn1c(CO)nnc1[C@H]1C[C@@H](NC(=O)COc2ccc(Cl)c(Cl)c2)C1 [CBK306667] | 106.357% |
| Cc1cc(S(=O)(=O)NCc2cc(F)c(F)c(F)c2)c(C)cc1Cl [CBK043813] | 117.2% |
| O=C(Nc1ccc(N2CCN(Cc3ccccc3F)CC2)cc1)c1cc2ccccc2o1 [CBK267210] | 153.008% |
| CCc1nnsc1C(=O)Nc1nn(C)c2cccc(N3CCOCC3)c12 [CBK307671] | 134.045% |
| COc1ccccc1NC(=O)C(=O)N/N=C/c1ccc(C(=O)O)cc1 [CBK262148] | 112.718% |
| CC(=O)c1c2c(c(N3CCN(C#N)CC3)[nH]c1=S)CC(C)(C)OC2 [CBK018622] | 114.714% |
| C=CCn1c2cc(C)sc2c2cnn(CC(=O)OC)c(=O)c21 [CBK284166] | 157.648% |
| Cc1nn2c(-c3ccncc3)ccnc2c1-c1ccccc1 [CBK288548] | 128.961% |
| CCCc1ccc(OCC(=O)Nc2ccccc2C(N)=O)cc1 [CBK263103] | 91.2585% |
| Cn1c(/C(C#N)=C\c2ccc(-c3ccc(S(N)(=O)=O)cc3)o2)nc2ccccc21 [CBK266380] | 177.579% |
| Cc1c(C)n(CC(O)CNCc2ccco2)c2ccccc12 (stereo not shown) [CBK263970G] | 90.1782% |
| Cc1ccc(OCCn2c(SCCC(=O)O)nc3ccccc32)cc1 [CBK262561] | 100% |
| CN1CCN(C)C(COc2ncccc2C(F)(F)F)C1 (stereo not shown) [CBK113458] | 107.891% |
| Nc1nc(OCc2ccncc2)cnc1-c1ccc(OC(F)(F)F)cc1 [CBK145121] | 130.142% |
| CC(=O)Nc1ccc(-c2ccc(C(=O)NCCc3ccc(O)cc3)cn2)cc1 [CBK158840] | 87.6023% |
| O=C(NCCCn1cccn1)N1CCCN(Cc2ccc(Cl)cc2)CC1 [CBK305447] | 87.7219% |
| COc1cccc(CC(=O)Nc2nc(Cc3n[nH]c(=S)n3C)cs2)c1 [CBK296634] | 101.263% |
| CCCCc1c(O)nc(SCC(=O)NCC2CCCO2)[nH]c1=O (stereo not shown) [CBK073281] | 119.63% |
| CCCCNc1cc(N2CCOC(c3cnn(CC)c3)C2)nc(N)n1 (stereo not shown) [CBK305423] | 121.438% |
| COc1ccc(C(=O)Nc2noc3nc(C)ccc23)cc1OC [CBK287832] | 107.634% |
| COCCNC(=O)Nc1ccc2nc(-c3ccccn3)c(-c3ccccn3)nc2c1 [CBK265151] | 118.066% |
| Nc1ncc(-c2cncnc2)nc1NCc1ccccc1 [CBK063584] | 232.361% |
| OCc1ccc(-c2nccnc2NCC2CC2)cc1 [CBK037334] | 194.867% |
| CCNC(=O)C1(Cc2ccccc2-c2cccnc2)CCOCC1 [CBK285218] | 113.867% |
| NC(=O)N/N=C/COc1cccc(C(F)(F)F)c1 [CBK022736] | 108.474% |

Reformatted: entries from further up.
Structure (SMILES)	% of control remaining
CCc1nnsc1C(=O)Nc1nn(C)c2cccc(N3CCOCC3)c12 [CBK307671]	134.045%
CN1CCN(C)C(COc2ncccc2C(F)(F)F)C1 (stereo not shown) [CBK113458]	107.891%
O=C(NCCCn1cccn1)N1CCCN(Cc2ccc(Cl)cc2)CC1 [CBK305447]	87.7219%
